No constants are given. Whether binding was seen depends on the method and setting. Binding seen in cells or lysates may run through a third protein. A yes stands for co-enrichment or nearness to the bait. Other partners may have been found. For some of these results: Where a sequence is shown, tags or fusion partners need not be part of it.
T1: CDPK4-2xmyc (P. berghei) (UniProt P62345)
T1 sequence (chain, myristoylated glycine 2 (large 63 kDa isoform)): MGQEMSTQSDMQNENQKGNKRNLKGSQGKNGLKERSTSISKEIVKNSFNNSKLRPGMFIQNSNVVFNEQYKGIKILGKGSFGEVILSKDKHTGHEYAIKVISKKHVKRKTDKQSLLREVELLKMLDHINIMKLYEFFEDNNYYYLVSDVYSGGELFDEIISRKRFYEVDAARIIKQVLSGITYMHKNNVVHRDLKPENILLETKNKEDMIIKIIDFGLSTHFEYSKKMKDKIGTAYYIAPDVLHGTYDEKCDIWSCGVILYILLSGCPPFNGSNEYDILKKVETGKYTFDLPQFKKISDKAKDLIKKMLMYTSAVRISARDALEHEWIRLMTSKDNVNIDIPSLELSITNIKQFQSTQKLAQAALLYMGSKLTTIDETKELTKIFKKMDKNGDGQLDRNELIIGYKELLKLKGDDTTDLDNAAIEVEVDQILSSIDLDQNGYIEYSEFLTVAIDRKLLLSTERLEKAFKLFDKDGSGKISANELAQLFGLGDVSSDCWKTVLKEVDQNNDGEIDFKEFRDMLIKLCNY

T2: CDPK4-3xHA (P. berghei) (UniProt P62345)
T2 sequence (chain, myristoylated glycine 2 (large 63 kDa isoform)): T1 sequence (chain, myristoylated glycine 2 (large 63 kDa isoform))

B1: CDPK4 (enzyme, UniProt P62345 1-528)
chain: T1 sequence (chain, myristoylated glycine 2 (large 63 kDa isoform))

Tests used:
[1] = target: T1, CDPK4-2xmyc (P. berghei); assay: affinity purification with mass spectrometry; gametocytes of the CDPK4-2xmyc, CDPK4^G2A-2xmyc, MCM5-3xHA and SOC1-3xHA lines (non-activated; CDPK4-2xmyc also 15 s after activation with or without 1 µM 1294) and of CDPK4-3xHA and CDPK4-2xmyc 10 min after activation; fixed 10 min with 1% formaldehyde, lysed in RIPA buffer, anti-HA or anti-c-myc magnetic beads, digestion on the beads, LC-ESI-MS/MS; proteins found in the WT control left out
[2] = target: T2, CDPK4-3xHA (P. berghei); assay: affinity purification with mass spectrometry; CDPK4-3xHA gametocytes, non-activated (0 s) and 15 s after XA activation with or without 1 µM 1294; fixed 10 min with 1% formaldehyde, lysed in RIPA buffer, benzonase nuclease added, anti-HA magnetic beads; eluate separated by gel, eight slices …; proteins found in the WT control left out
[3] = target: MCM5-3xHA (P. berghei); assay: affinity purification with mass spectrometry; gametocytes of the CDPK4-2xmyc, CDPK4^G2A-2xmyc, MCM5-3xHA and SOC1-3xHA lines (non-activated; CDPK4-2xmyc also 15 s after activation with or without 1 µM 1294) and of CDPK4-3xHA and CDPK4-2xmyc 10 min after activation; fixed 10 min with 1% formaldehyde, lysed in RIPA buffer, anti-HA or anti-c-myc magnetic beads, digestion on the beads, LC-ESI-MS/MS; proteins found in the WT control left out
[4] = target: SOC1-3xHA (P. berghei); assay: as above

Row | Molecule | binding [1] | binding [2] | binding [3] | binding [4]
1 | MCM4 (P. berghei (endogenous in gametocytes)) | binds | binds |  | 
2 | PBANKA_110290 (P. berghei (endogenous in gametocytes)) | binds | binds |  | 
3 | ORC5 (P. berghei (endogenous in gametocytes)) | binds | binds |  | 
4 | ORC1 (P. berghei (endogenous in gametocytes)) | binds | binds |  | 
5 | ORC2 (P. berghei (endogenous in gametocytes)) | binds | binds |  | 
6 | PBANKA_134880 (P. berghei (endogenous in gametocytes)) | binds | binds |  | 
7 | MCM2 (P. berghei (endogenous in gametocytes)) | binds | binds |  | 
8 | Cdt1 (P. berghei (endogenous in gametocytes)) | binds | binds |  | 
9 | MCM3 (P. berghei (endogenous in gametocytes)) | binds | binds |  | 
10 | MCM6 (P. berghei (endogenous in gametocytes)) | binds | binds |  | 
11 | MCM5 (P. berghei (endogenous in gametocytes)) | binds | binds |  | 
12 | MCM7 (P. berghei (endogenous in gametocytes)) | binds | binds |  | 
13 | PBANKA_051390 (P. berghei (endogenous in gametocytes)) | binds | binds |  | 
14 | B1 |  |  | binds | binds
